Data: PubChem BioAssay AID540276 (National Center for Advancing Translational Sciences (NCATS), 2011)
The campaign covered roughly 300,000 compounds. About 5,400 (1.8%) were called active. Inconclusive means that the source gave no clear call. Such entries were picked first, then a sample of the others. The call rests on the fitted dose curve; tested in HEK293 cells. Potencies of inconclusive entries are doubtful fits and often do not repeat.

Experiment: qHTS for inhibitors of binding or entry into cells for Marburg Virus
Settings: Marburg virus pseudotyped entry inhibition, cell reporter; activity change, negative = inhibition: at 37.8 µM (top of the series) unless noted
On the % scale 0 is the no-effect control and ±100 the full control effect; potency means the concentration at half of the fitted maximal effect.

**Q.** With `COC(=O)c1cc(C(=O)Nc2cc(C)ccn2)cc([N+](=O)[O-])c1` as the molecule, how does the Potency read?
**A.** inconclusive: 17.8 µM [inhibitor, partial curve, poor fit]

**Q.** Which Potency does the source give for `Cn1cc(C(=O)NCc2ccccc2)c2ccccc21` here?
**A.** inconclusive: 7.94 µM [inhibitor, partial curve, poor fit]

**Q.** For `CNCc1c(OCc2ccc(F)cc2)ccc2ccccc12`, which Potency is on record?
**A.** inconclusive: 1.78 µM [inhibitor, single point]

**Q.** Which “activity change, negative = inhibition” value does the source give for `Nc1cccc2cccc([N+](=O)[O-])c12` here?
**A.** inactive: 19.6%

**Q.** For `COc1ccc(-n2cnc3cc(NCc4ccco4)ccc32)cc1`, which Potency is on record?
**A.** inconclusive: 29.1 µM [inhibitor, single point]

**Q.** Which Potency does the source give for `CCOC(=O)Cc1csc(NC(=O)CSc2ncnc3c2cnn3-c2ccccc2Cl)n1` here?
**A.** inconclusive: 35.5 µM [inhibitor, single point]

**Q.** With `CC(=O)c1sc(NC(=O)c2ccccc2F)nc1-c1ccccc1` as the molecule, how does the “activity change, negative = inhibition” value read?
**A.** inactive: 2.76% [at 46.1 µM]

**Q.** With `OCC1(CCOc2ccccc2)CCN(Cc2cccn2-c2ncccn2)CC1` as the molecule, how does the Potency read?
**A.** inconclusive: 6.31 µM [inhibitor, single point]

**Q.** Which Potency does the source give for `COCC1CCN(Cc2nc(-c3ccc(OC)cc3)no2)CC1` here?
**A.** inconclusive: 5.62 µM [activator, single point]

**Q.** Which Potency does the source give for `Cc1ccc(N2C(=O)C(NC(=O)c3c(F)cccc3F)(C(F)(F)F)C3=C2CC(C)(C)CC3=O)cc1` (centres undefined) here?
**A.** inconclusive: 0.112 µM [activator, full curve, poor fit]

**Q.** For `Cc1cc(NC(=O)c2cc(-c3ccccn3)nc3ccccc23)no1`, which “activity change, negative = inhibition” value is on record?
**A.** inactive: -0.933%

**Q.** With `COc1ccc(OCC(=O)Nc2ccccc2OC)cc1` as the molecule, how does the Potency read?
**A.** inconclusive: 2.06 µM [activator, full curve]

**Q.** With `COc1cccc(OCCCCN2CC(C)OC(C)C2)c1` (centres undefined) as the molecule, how does the “activity change, negative = inhibition” value read?
**A.** inactive: -1.72%

**Q.** Which “activity change, negative = inhibition” value does the source give for `Cc1cc(NC(=O)c2noc3c2CCCCC3)nn1Cc1ccc(Cl)cc1` here?
**A.** inactive: -7.24%

**Q.** For `CCOc1ncccc1C(=O)OC(C)C(=O)NC(=O)NC1CCCCC1` (centres undefined), which Potency is on record?
**A.** inconclusive: 1.26 µM [activator, partial curve, poor fit]

**Q.** With `Oc1c(Cl)c(Cl)c2ncccc2c1Cl` as the molecule, how does the Potency read?
**A.** inconclusive: 35.5 µM [inhibitor, single point]

**Q.** For `O=C(Nc1cc(C(F)(F)F)ccc1N1CCCC1)c1ccc2c(c1)OCO2`, which Potency is on record?
**A.** inconclusive: 3.55 µM [inhibitor, full curve, poor fit]

**Q.** For `Nc1nnc(SCc2cccc(C(F)(F)F)c2)s1`, which “activity change, negative = inhibition” value is on record?
**A.** inactive: -23.9%

**Q.** Which “activity change, negative = inhibition” value does the source give for `Cc1ccc(CCNc2ncnc3onc(-c4ccc(Cl)cc4)c23)cc1` here?
**A.** inactive: -17.1% [at 46.1 µM]

**Q.** Which “activity change, negative = inhibition” value does the source give for `COC(=O)c1ccc(-c2noc(CN3CCCC(CNC(C)=O)C3)n2)cc1` (centres undefined) here?
**A.** inactive: -2.58% [at 46.1 µM]

**Q.** For `Cc1ccc(C(=O)CSc2nn3c(=O)c(C(C)(C)C)nnc3s2)cc1`, which “activity change, negative = inhibition” value is on record?
**A.** inactive: 2.08%

**Q.** With `CCOc1ccc(C(=O)NC(=S)Nc2ccccc2N2CCCCC2)cc1[N+](=O)[O-]` as the molecule, how does the Potency read?
**A.** inconclusive: 11.2 µM [inhibitor, partial curve]

**Q.** Which “activity change, negative = inhibition” value does the source give for `O=C(N1CCCCC1)N1CCN(C(c2ccccc2)c2ccccc2)CC1` here?
**A.** inactive: 0.0658%

**Q.** For `COc1ccc(NC(=O)CSc2nc3c(oc4ccccc43)c(=O)n2Cc2ccco2)cc1Cl`, which Potency is on record?
**A.** inconclusive: 3.16 µM [inhibitor, partial curve, poor fit]

**Q.** Which “activity change, negative = inhibition” value does the source give for `CN1CCN(C(=O)CN2C(=O)NC(C)(c3ccc4ccccc4c3)C2=O)CC1` (centres undefined) here?
**A.** inactive: -2.31%

**Q.** Which “activity change, negative = inhibition” value does the source give for `CC(C)=CCC/C(C)=C/CO/N=C1\C[C@@H](O)[C@@H](O)[C@@H]2[C@@H]3C(=O)N(Cc4ccc5c(c4)OCO5)C(=O)[C@@H]3CC[C@H]12` here?
**A.** inactive: -43.7% [at 14.2 µM]

**Q.** Which Potency does the source give for `N/C(=N\S(=O)(=O)c1ccccc1)c1ccc([N+](=O)[O-])cc1` here?
**A.** inconclusive: 6.31 µM [activator, partial curve, poor fit]

**Q.** With `O=C(O)c1ccccc1C(=O)Nc1ccc(Oc2ccc3ccccc3c2)cc1` as the molecule, how does the Potency read?
**A.** inconclusive: 2.82 µM [inhibitor, single point]

**Q.** Which Potency does the source give for `Cc1ccc(C)c(NC(=S)NC(NC(=O)/C=C/c2ccccc2)C(Cl)(Cl)Cl)c1` (centres undefined) here?
**A.** inconclusive: 4.61 µM [inhibitor, full curve, poor fit]

**Q.** Which Potency does the source give for `CCOc1ccc(-c2nnc3ccc(SCc4ccc(C(=O)OC)o4)nn23)cc1` here?
**A.** inconclusive: 29.1 µM [inhibitor, single point]

**Q.** Which Potency does the source give for `Cc1ccc(N=C2NC(=O)/C(=C\c3cccs3)S2)cc1C` here?
**A.** inconclusive: 6.51 µM [activator, single point]

**Q.** For `CCOCCCN1C(=O)c2ccccc2CC1(C)C(=O)NC1CCCCC1` (centres undefined), which Potency is on record?
**A.** inconclusive: 39.8 µM [inhibitor, partial curve, poor fit]

**Q.** For `CCCn1c(SCC(=O)Nc2cccc(C(=O)OC)c2)nnc1-c1cccnc1`, which “activity change, negative = inhibition” value is on record?
**A.** inactive: 3.8%

**Q.** Which Potency does the source give for `COc1ccc(/C=N/NC(=O)c2cccnc2)cc1COc1ccc([N+](=O)[O-])cc1` here?
**A.** inconclusive: 2.82 µM [inhibitor, full curve, poor fit]

**Q.** Which “activity change, negative = inhibition” value does the source give for `CCC(=O)C[C@@H](NC(=O)OC)c1ccc(F)cc1` here?
**A.** inactive: 5.98% [at 14.2 µM]

**Q.** Which Potency does the source give for `O=C1N(Cc2cccc(Cl)c2)C[C@@H]2C[C@@H](c3cccc4ncccc34)N3CCC[C@@]123` here?
**A.** inconclusive: 11.2 µM [inhibitor, partial curve, poor fit]

**Q.** Which “activity change, negative = inhibition” value does the source give for `O=C(Cn1nnc(-c2ccccc2)n1)c1ccccc1` here?
**A.** inactive: 23.3%

**Q.** Which Potency does the source give for `COC(=O)c1cc(OC)c(OC)cc1N=CC1=C(O)CC(C)(C)CC1=O` here?
**A.** inconclusive: 35.5 µM [activator, single point]

**Q.** Which Potency does the source give for `COc1cc(OC)c(C2N(c3cc(C)on3)C(=O)C3CCCN32)cc1OC` (centres undefined) here?
**A.** inconclusive: 29.1 µM [activator, single point]

**Q.** Which “activity change, negative = inhibition” value does the source give for `Cc1cc2ncn(C(=O)c3c(-c4ccccc4)noc3C)c2cc1C` here?
**A.** inactive: -6.46%

**Q.** Which Potency does the source give for `CCCCCN(C(=O)CCC(=O)OCC(=O)c1ccc(C(C)CC)cc1)c1c(N)n(CCCC)c(=O)[nH]c1=O` (centres undefined) here?
**A.** inconclusive: 10 µM [inhibitor, partial curve, poor fit]

**Q.** Which Potency does the source give for `NC(=O)C1CCN(c2oc(-c3cccs3)nc2S(=O)(=O)c2ccc(Cl)cc2)CC1` here?
**A.** inconclusive: 15.8 µM [inhibitor, single point]

**Q.** With `Cc1cccc(NS(=O)(=O)c2ccc(C)c(C(=O)NCC(c3ccco3)N3CCCCC3)c2)c1` (centres undefined) as the molecule, how does the Potency read?
**A.** inconclusive: 22.4 µM [inhibitor, single point]

**Q.** Which Potency does the source give for `COc1ccccc1/C=c1\sc2nc(-c3ccccc3OC)nn2c1=O` here?
**A.** inconclusive: 1.12 µM [inhibitor, single point]
